# Measurements from PubChem BioAssay AID602313 (National Center for Advancing Translational Sciences (NCATS), 2012).
# Among all 390,000 compounds or so, about 760 (0.19%) were called active. This list was built around the results that the source calls inconclusive (neither active nor inactive); the mix of calls is not that of the screen. Calls follow the shape of the dose curve; as a rule, active = well fitted inhibition curve with a large enough effect; inconclusive = small, poorly fitted or top-dose-only effect; inactive = flat fitted curve, though single readings scatter. A potency beside an inconclusive call is a rough fit, not a confirmed value.
# Assay: qHTS for Inhibitors of Vif-A3F Interactions: qHTS; also: nearly all actives have a fitted effect of over 65% in size
# Conditions: HeLa A3F-eYFP + Vif (tagged APOBEC3F with the HIV-1 protein that degrades it), YFP fluorescence increase; series mostly up to 46.1 µM
# In short: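 Fluorescence increase (Ex 488/Em 500-530) after overnight compound treatment at 37 deg C flags inhibition of Vif-driven A3F-eYFP loss in stable HeLa A3F-eYFP/Vif cells seeded overnight beforehand.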
# Potency is read from the fitted curve at half-maximal effect.
row,Structure (SMILES),Potency
1,O=C(NC1CCCCCC1)c1ccc(Br)o1,inactive
2,CCCS(=O)(=O)N1CCN(Cc2ccccc2C(F)(F)F)CC1,inactive
3,Brc1cccc(-c2nc(-c3ccncc3)no2)c1,"inconclusive: 20 µM [inhibitor, partial curve, poor fit]"
4,CC(=O)c1c(C)[nH]c(C(=O)OCc2cccc(Cl)c2)c1C,"inconclusive: 3.16 µM [inhibitor, single point]"
5,CC(C)NC(=O)/C(C#N)=C\c1ccc(N(C)C)o1,"inconclusive: 35.5 µM [inhibitor, single point]"
6,COc1cccc(NC(C)C(=O)Nc2cc([N+](=O)[O-])ccc2Cl)c1 (configuration not stated),"inconclusive: 35.5 µM [inhibitor, single point]"
7,O=[N+]([O-])c1ccc(NN=Cc2cc(Br)ccc2O)nc1,"inconclusive: 11.2 µM [inhibitor, partial curve, poor fit]"
8,COc1ccccc1NC(=O)COC(=O)CNC(=O)C1CCCCC1,"inconclusive: 6.31 µM [inhibitor, single point]"
9,COc1ccc(C(C#N)=Cc2ccc(N(C)CCC#N)cc2)cc1,"inconclusive: 15.8 µM [inhibitor, single point]"
10,O=C(CNCc1ccccc1)Nc1ccc(Cl)cc1,inactive
11,Cn1c(=O)c2c(ncn2CCNC2=NCCCCC2)n(C)c1=O,"inconclusive: 6.31 µM [inhibitor, single point]"
12,Cc1ccc(Nc2nc(C)cs2)cc1,"inconclusive: 11.2 µM [inhibitor, partial curve]"
13,CN1C(=O)c2cccc3c(N(C)C)ccc(c23)C1=O,"inconclusive: 17.8 µM [inhibitor, partial curve, poor fit]"
14,COc1ccc(-n2ccc(=O)c(C(=O)Nc3ccc(S(=O)(=O)Nc4nccs4)cc3)n2)cc1,"inconclusive: 35.5 µM [inhibitor, single point]"
15,COc1ccc(C2CC(c3cccs3)=NN2C(=O)CSC2=NCCS2)cc1 (configuration not stated),inactive
16,O=C(COc1ccc(Br)cc1)NNC(=S)NC(=O)c1ccccc1[N+](=O)[O-],inactive
17,CC(=O)Nc1ccc(C(=O)CCl)cc1,"inconclusive: 5.62 µM [inhibitor, single point]"
18,CN(Cc1ccccc1)Cc1nc2c(c(=O)n(C)c(=O)n2C)n1CCc1ccccc1,inactive
19,COc1ccc2c(c1)O/C(=C\c1sccc1C)C2=O,inactive
20,O=C(CC1C(=O)NCCN1C(=O)c1ccc(Cl)cc1)Nc1ccc(F)cc1 (configuration not stated),inactive
21,COCc1ccc(CN2CCC(CO)(CC3CCCCO3)CC2)o1 (configuration not stated),"inconclusive: 20 µM [inhibitor, single point]"
22,O=C(Nc1ccc(OC(F)(F)F)cc1)c1nc2ccccc2nc1N1CCCCC1,inactive
23,CSC1=NC(=O)/C(=C/c2ccc(SC)cc2)S1,inactive
24,COc1ccc(OC)c(NC(=O)c2cc(-c3cc(C)cc(C)c3O)n[nH]2)c1,active: 11.2 µM

# Structures from the list above that have a halogen, in the order listed:
row,Structure (SMILES),Potency
1,O=C(NC1CCCCCC1)c1ccc(Br)o1,inactive
2,CCCS(=O)(=O)N1CCN(Cc2ccccc2C(F)(F)F)CC1,inactive
3,Brc1cccc(-c2nc(-c3ccncc3)no2)c1,"inconclusive: 20 µM [inhibitor, partial curve, poor fit]"
4,CC(=O)c1c(C)[nH]c(C(=O)OCc2cccc(Cl)c2)c1C,"inconclusive: 3.16 µM [inhibitor, single point]"
6,COc1cccc(NC(C)C(=O)Nc2cc([N+](=O)[O-])ccc2Cl)c1 (configuration not stated),"inconclusive: 35.5 µM [inhibitor, single point]"
7,O=[N+]([O-])c1ccc(NN=Cc2cc(Br)ccc2O)nc1,"inconclusive: 11.2 µM [inhibitor, partial curve, poor fit]"
10,O=C(CNCc1ccccc1)Nc1ccc(Cl)cc1,inactive
16,O=C(COc1ccc(Br)cc1)NNC(=S)NC(=O)c1ccccc1[N+](=O)[O-],inactive
17,CC(=O)Nc1ccc(C(=O)CCl)cc1,"inconclusive: 5.62 µM [inhibitor, single point]"
20,O=C(CC1C(=O)NCCN1C(=O)c1ccc(Cl)cc1)Nc1ccc(F)cc1 (configuration not stated),inactive
22,O=C(Nc1ccc(OC(F)(F)F)cc1)c1nc2ccccc2nc1N1CCCCC1,inactive

# (cont.)

row,Structure (SMILES),Potency
1,O=[N+]([O-])c1ccc(N2N=C(c3ccco3)CC2c2ccccc2)cc1 (configuration not stated),"inconclusive: 22.4 µM [inhibitor, partial curve, poor fit]"
2,Cc1ccccc1Sc1ncnc2onc(C)c12,inactive
3,COC(=O)c1ccccc1NC(=O)c1ccc2nccnc2c1,"inconclusive: 0.316 µM [inhibitor, full curve, poor fit]"
4,CC(C)c1ccccc1NC(=S)NCc1nc2ccccc2[nH]1,"inconclusive: 31.6 µM [inhibitor, single point]"
5,COc1ccc(C(=O)NC(=S)NCc2cccnc2)cc1Cl,"inconclusive: 8.91 µM [inhibitor, partial curve]"
6,COc1ccccc1NC(=S)N=Nc1c(O)[nH]c2ccc(Br)cc12,"inconclusive: 35.5 µM [inhibitor, single point]"
7,Oc1ccc(/C=C/c2ccc3ccccc3n2)cc1,inactive
8,Cc1ccc(NC(=O)c2cc(S(=O)(=O)NCCc3ccccc3)ccc2F)cc1Cl,"inconclusive: 20 µM [inhibitor, single point]"
9,CCC(C)C(=O)Nc1nc2ccc(S(C)(=O)=O)cc2s1 (configuration not stated),"inconclusive: 11.2 µM [inhibitor, single point]"
10,CCCCn1nnc(NC(=S)NC(=O)c2ccc(OCC)c([N+](=O)[O-])c2)n1,"inconclusive: 31.6 µM [inhibitor, single point]"
11,CCCCNC(=O)c1ccc2c(c1)NC(=O)C(CS(=O)(=O)Cc1cccc(C)c1)N2 (configuration not stated),"inconclusive: 35.5 µM [inhibitor, single point]"
12,COc1cc2nc(/C=C/c3cc(OC)c(OC)c(OC)c3)sc2cc1SC,inactive
13,CC(OC(=O)c1snc(C(=O)NC2CCCCC2)c1N)C(=O)NC1CCCCC1 (configuration not stated),inactive
14,CN1C(=O)N(CC(=O)N2CCN(S(=O)(=O)Cc3ccccc3)CC2)C(=O)C12CCCCC2,"inconclusive: 6.31 µM [inhibitor, single point]"
15,CC(OC(=O)c1cccc(-n2cnnn2)c1)C(=O)Nc1ccccc1F (configuration not stated),"inconclusive: 6.31 µM [inhibitor, single point]"
16,CCOc1cc(C2C3=C(CC(C)(C)CC3=O)OC3=C2C(=O)CC(C)(C)C3)cc([N+](=O)[O-])c1O,inactive
17,Cc1nc(Nc2ccc(Cl)cc2)cc(-c2ccccc2)n1,"inconclusive: 35.5 µM [inhibitor, single point]"
18,COc1ccccc1COC(=O)N/C=C/c1ccco1,"inconclusive: 17.8 µM [inhibitor, single point]"
19,O=C(/C=C/c1ccncc1)c1cc(Cl)ccc1O,active: 25.1 µM
20,Cc1ccc(S(=O)(=O)Nc2ccc3c(c2)CC(=O)N([C@H](C)CO)C[C@@H](C)[C@H](CN(C)Cc2ccc(-c4ccccc4)cc2)O3)cc1,"inconclusive: 25.1 µM [inhibitor, single point]"
21,Cc1nc(Cc2ccc(OC(C)C)cc2)[nH]c(=O)c1CC(=O)O,"inconclusive: 1.26 µM [inhibitor, partial curve, poor fit]"
22,CCOCCCNC(=S)NCCCNc1nc2c(C)c(C)ccc2cc1C#N,inactive
23,Cc1ccc(NC(=O)O/N=C/c2ccc(N(C)C)cc2)cc1,"inconclusive: 10 µM [inhibitor, single point]"

# Some of these compounds in order of length of the SMILES, low to high:
row,Structure (SMILES),Potency
15,CC(OC(=O)c1cccc(-n2cnnn2)c1)C(=O)Nc1ccccc1F (configuration not stated),"inconclusive: 6.31 µM [inhibitor, single point]"
1,O=[N+]([O-])c1ccc(N2N=C(c3ccco3)CC2c2ccccc2)cc1 (configuration not stated),"inconclusive: 22.4 µM [inhibitor, partial curve, poor fit]"
13,CC(OC(=O)c1snc(C(=O)NC2CCCCC2)c1N)C(=O)NC1CCCCC1 (configuration not stated),inactive
